The DeepSol protein solubility set

Test: soluble on expression in E. coli; label from the status in PepcDB or PDB records

Sequence | soluble on expression in E. coli
AMNAFGDMTSEEFRQVMNGFQNRKPRKGKVFQEPLFYEAPRSVDWREKGYVTPVKNQGQCGSCWAFSATGALEGQMFRKTGRLISLSEQNLVDCSGPQGNEGCNGGLMDYAFQYVQDNGGLDSEESYPYEATEESCKYNPKYSVANDAGFVDIPKQEKALMKAVATVGPISVAIDAGHESFLFYKEGIYFEPDCSSEDMDHGVLVVGYGFESTESDNNKYWLVKNSWGEEWGMGGYVKMAKDRRNHCGIASAASYPTV | soluble
EFVVEKVLDRRVVNGKVEYFLKWKGFTDADNTWEPEENLDCPELIEAFLNSQKAGKEKDGTKRKSLSDSESDDSKSKKKRDAADKPRGFARGLDPERIIGATDSSGELMFLMKWKDSDEADLVLAKEANMKCPQIVIAFYEERLTWHSCPEDEAQ | not soluble
GPGSMSGLGSDDVLYYLYDPNLVPPARDKYIQVISELLAGYYDSSYVDKINIMDILRGGAMEAVELCEDAKSILSKEPTVLGLCVGDVDDFVFVGDIHGQFNDLLHSVLSVQLSRSAPVSRKGTKVATQPTQRMNDEEARGERSSPLPIVATPTLSSSLAPLPSSTAMPRHRDDSRGFGRDAGKIIRFLFLGDYVDRGPRGLEVIVLLLALKIEYPQHVFLLRGNHEEAQTNRLYGF | not soluble
MAANGVATAGRQVSEKEADIQMMLSADVHLGTKNCNYQMERYVFKRRDDGIYIINLGKTWDKLQMAARVIVAIENPKDIIVQSARPYGQRAVLKFAQYTGVNAIAGRHTPGTFTNQMQTSFSEPRLLILTDPRTDHQPIKEGALGNIPTIAFCDTDSPMGFVDIGIPANNKGKHSIGCLFWLLARMVLQMRGTILAAQKWDVMVDLFFYREPEEAKQEGDEEAEVQADYGMVGGDQWTTAQISDAAWSGEVEQPISAAPAVGVTVAAGWEAASVPAAGWE | not soluble
MADSTTAQHVTDEVDVALIGAGIMSATLGAMLRTLEPGWTQVMFERLDAPAQESSSPWNNAGTGHSALCELNYTPEVKGRVQIDKALGVNEKFQISRQFWSYQVNEGVLPSPREWINPVPHVSFGRGEDQVAYLKKRYEALAAHPLFPNMQYTDDRAKFAEMLPLMADGRSEFEKVAISWTDAGTDINYGSQTRQFLKAAEKNGTEIRYGHEVKDIKRDGAKWRVTVKNVHTGDTQVIRANFVFVGAGGMALPLLQKTGIVEIRGWGGFPVSGQWLRCTNPDIIEQHAAKVYGKASIGAPPMSVPHLDTRVIDGEKGLLFGPYAGWTPKFLKKGSYLDLFKSIRPTNLMSYLGVGAQEFGLTKYLITEVMKDQAARMESLREYMPNAKDEDWELVTAGQRVQAIQPVVGPRFSTLAFGTSLINSADGSVAGILGASPGASIAPAAMLELLERCFGQKMVEWGPTIKDMIPSYGIRLATDQKLFNEIWDHTQATLQLDKK | not soluble
MAEGVFQGAIGIDLGTTYSCVATYESSVEIIANEQGNRVTPSFVAFTPEERLIGDAAKNQAALNPRNTVFDAKRLIGRRFDDESVQKDMKTWPFKVIDVDGNPVIEVQYLEETKTFSPQEISAMVLTKMKEIAEAKIGKKVEKAVITVPAYFNDAQRQATKDAGAISGLNVLRIINEPTAAAIAYGLGAGKSEKERHVLIFDLGGGTFDVSLLHIAGGVYTVKSTSGNTHLGGQDFDTNLLEHFKAEFKKKTGLDISDDARALRRLRTAAERAKRTLSSVTQTTVEVDSLFDGEDFESSLTRARFEDLNAALFKSTLEPVEQVLKDAKISKSQIDEVVLVGGSTRIPKVQKLLSDFFDGKQLEKSINPDEAVAYGAAVQGAILTGQSTSDETKDLLLLDVAPLSLGVGMQGDMFGIVVPRNTTVPTIKRRTFTTCADNQTTVQFPVYQGERVNCKENTLLGEFDLKNIPMMPAGEPVLEAIFEVDANGILKVTAVEKSTGKSSNITISNAVGRLSSEEIEKMVNQAEEFKAADEAFAKKHEARQRLESYVASIEQTVTDPVLSSKLKRGSKSKIEAALSDALAALQIEDPSADELRKAEVGLKRVVTKAMSSR | not soluble
MAELRSNMITQGIDRAPHRSLLRAAGVKEEDFGKPFIAVCNSYIDIVPGHVHLQEFGKIVKEAIREAGGVPFEFNTIGVDDGIAMGHIGMRYSLPSREIIADSVETVVSAHWFDGMVCIPNCDKITPGMLMAAMRINIPTIFVSGGPMAAGRTSYGRKISLSSVFEGVGAYQAGKINENELQELEQFGCPTCGSCSGMFTANSMNCLSEALGLALPGNGTILATSPERKEFVRKSAAQLMETIRKDIKPRDIVTVKAIDNAFALDMALGGSTNTVLHTLALANEAGVEYSLERINEVAERVPHLAKLAPASDVFIEDLHEAGGVSAALNELSKKEGALHLDALTVTGKTLGETIAGHEVKDYDVIHPLDQPFTEKGGLAVLFGNLAPDGAIIKTGGVQNGITRHEGPAVVFDSQDEALDGIINRKVKEGDVVIIRYEGPKGGPGMPEMLAPTSQIVGMGLGPKVALITDGRFSGASRGLSIGHVSPEAAEGGPLAFVENGDHIIVDIEKRILDVQVPEEEWEKRKANWKGFEPKVKTGYLARYSKLVTSANTGGIMKILEHHHHHH | soluble
MAHHHHHHMNAAAIEVINKLKKEDESNNKCFDCGVPNPDWVSVNHGVFLCINCSGVHRSLGVHISIVRSIKMDIFTDEQLKYLDKGGNKKFQTYLENYGINDFIPERKYRTKAAEHYRKIMRSIVHNSDPPSPLSLDEGKDLINFGQNENMNANEINKNSRNNFYADDQPNFIPSLNTSEILDNVSATFSNIINKAQTMTTNTINNLNKNDLIESTKDTLMNSSSWITEKTKKIAENVSDNPWWEKGQSKIKDVTQNASGWISTISSTVSRTNSNFFFANSEFGATGGPNGTGSVSTNASAQGGQGAGAPDHLTNNASSVNNSNADGYNKPNGGENNPGFSRTDTNKSLNKN | not soluble
MAHHHHHHMSNKKGQSPKEESIAKMLICKVHIGTKNLENKMKRYVYTRAKDGVHIINLAKTYEKLQLAARIIVAISNPADVVVVSARPFGSRAVLKFAQYTGAQAIAGRWTPGMLTNQIIQKFTEPRLLIVTDPRTDAQSVKESAYANIPVIALCDSDSPLEHVDIAIPCNNKGKESIALMYWLLAQEVLYLKGVIPRSEPWNVMVDMFLWRDPEQFELKNLANEENTPTAPHLIENQYAAEAPYDEWTKKEEWNDNTNEDWKNPIAAEEW | not soluble
MEENIVSENNMKHRSSVYDSMVKSPNRAMLRATGMTDDSFEKPIVGVISTWAENTPCNIHLHGFGQIAKEGVKDAGAWPVQFGTITVADGIAMGTPGMRFSLTSRDIIADSIEAAMGGHNVDAFVAIGGCDKNMPGSMIAIANMDIPAIFAYGGTIAPGNLNGKDIDLVSVFEGIGKWNHGDMTAEEVKNLECNACPGPGGCGGMYTANTMATAIEVMGMSLPGSSSHPAESAEKKADIEEAGRAVVKMLEMGLKPSDILTREAFEDAITVTMALGGSTNATLHLLAIAHAANVDLTLEDFNDFQERVPHLADLKPSGQYVFQDLYNVGGVPAVMKYLLKNGFLHGDRITCTGKTVAENLEAFDDLTPGQKVIMPLENPKRADGPLIILKGNLAPEGAVAKVSGVKVRNITGPAKVFDSEEDAIEAVLSDEIVDGDVVVVRFVGPKGGPGMPEMLSLSSMIVGKGQGDKVALLTDGRFSGGTYGLVVGHIAPEAQVGGPIAYLRTGDMVTVDQDTKEITMHVPDEELAKRKAETELPPLYSRGVLGKYAHIVSSASRGAVTDFWNMDKSGKALEHHHHHH | soluble
MFENCFPNTLDTTVRYKMKAGRPDTFVITGDIDAMWLRDSSAQVWPYLPLMKDDKELQLLIAGLINRQAECIRIDPYANAFNDGPLGSYWETDHTQHMVKELHERKWEIDSLCYPIRLAYHYWLLTKDISAFDADWHETMKLVVQTFKEQQRKQGLGPYSFTRDCDRPTDSQINNGWGAPVKPVGLIVSSFRPSDDATQYGFLIPSNMFAVVSLRQLAEIEREVYDNLPFAEECTALADEVDAAIRRYGTFNHPVCGRIYAFEVDGFGNALCMDDANVPCLLAAPYLGYCSFKDAVYRNTRKMIWSENNPYFFKGKAGEGVGGPHVGLNYIWPMSIIMKAFTTDVPEEIRSCLKQLRDTDGGTGFMHESFNSENAADFTRSWFAWTNTLFGELILKIIREYPGLLSQALLEHHHHHH | not soluble
MGGVTSSIAAKFAFFPPSPPSYGFVSDVDRLYITEVPRRDDVDVLKLKTRRGNEIVAIYIKHPKANGTLLYSHGNAADLGQMFELFIELSNRLRLNLMGYDYSGYGQSTGKASECNTYADIDAAYTCLKEHYGVKDDQLILYGQSVGSGPTIDLASRTPNLRGVVLHSPILSGMRVLYPVKRTYWFDIYKNIDKIGAVTCPVLVIHGTADEVVDCSHGKQLWELSKEKYEPLWVSGGGHCNLELYPEFIKHLKKYVISISKGPRTGSNKTATTDAAKKQSKPAENGRADTFQLGCCLPEVSRNSVDSQLEKSKKTSKPEKSRMSIDRFRRKKGSVW | soluble
MGHHHHHHSHMLGLRKAAAISLLLRNVGLQLATLLMSQKKLGFCGNFLFLNLAIIQTKISSSFFFFLRQSLTLSPRLECNGAISAHCHLRLPDSSNSPASASQVTGITGSHHHAWLIFVFLVETGFCHVGQDGLELLTSGDPPASASQSAGITGMSHHTWPTDLFFKTVLPARLGLWDSSV | not soluble
MGSSHHHHHHSSGLVPRGSHMATPPKRSCPSFSASSEGTRIKKISIEGNIAAGKSTFVNILKQLCEDWEVVPEPVARWCNVQSTQDEFEELTMSQKNGGNVLQMMYEKPERWSFTFQTYACLSRIRAQLASLNGKLKDAEKPVLFFERSVYSDRYIFASNLYESECMNETEWTIYQDWHDWMNNQFGQSLELDGIIYLQATPETCLHRIYLRGRNEEQGIPLEYLEKLHYKHESWLLHRTLKTNFDYLQEVPILTLDVNEDFKDKYESLVEKVKEFLSTL | soluble
MGSSHHHHHHSSGLVPRGSHMPSHRNSNLKFCTVCASNNNRSMESHKVLQEAGYNVSSYGTGSAVRLPGLSIDKPNVYSFGTPYNDIYNDLLSQSADRYKSNGLLQMLDRNRRLKKAPEKWQESTKVFDFVFTCEERCFDAVCEDLMNRGGKLNKIVHVINVDIKDDDENAKIGSKAILELADMLNDKIEQCEKDDIPFEDCIMDILTEWQSSHSQLPSLYAPSYY | soluble
MKKIKTAFALPLFWLLFKVSKDMHKIQVDGQAWCQWQHKNFTLWNMCSLFIGFKEFRNLFYYRIGYLHHLIEWIFPRMTNLYITTPRSDVDSGLIIQHGFATIISAKQIGKNCKIYQQVTIGYDHTLQAPIIGDNVEICCGAKVIGGVTIGNNVIIGANAVVIKDVPNNCIVAGVPAKIIKKILEHHHHHH | not soluble
MKKKINCFIPFGNPKDTIQTVKELQASELVNKIYLLSADTNKECLPGCECLLINGLYSTSTIKTIADNADDASYLLLYTKQTPLKLGLYALERMTQIIQSSSENAMVYADHYQLVDGVLKQAPVIDYQQGSLRDDFDFGSVLLFNSEIFTLASSILEETVFQYAAFYEMRLMLGNLFQIIHINEFLYTEIETDTRKSGEKQFDYVNPKNREVQIEMEKVCIKHLKEINAYVRPSSRTVNLDREAFEFEASVIIPVRNRIRTIRDAVNSALSQQTTFPFNVIVIDNHSTDGTTEALQEFSADNRLIHIIPQENDLGIGGCWNVGVHHEKCGKFAVQLDSDDLYKDEHTLQKIVDTFYQQNCAMVIGTYLMTDFQMNEIAPGVIDHKEWTVEDGPNNALRINGLGAPRAFYTPILRKIKFPNTSYGEDYAIGLSISREYTIGRIYDVIYLCRRWEGNSDAALDIEKINRNNFYKDSIRTWELQARIRMHSIDESFQRLVNEMIEKQKKDWKLAKKNYKELEQNLKKEKTLELKLGGDTKRVRFFPNPQRAISTMAQTDSQSIQERPCFLCNDNRPAEQTSLSLGHYEVCLNPYPIFRRHLTIIEEEHTPQTIKNRFEDMLFLAENMNEFLILYNGPECGASAPDHMHFQAAGKEEKIANPFGMTFISDMLSSEDSVHSHLENGFTTSIGISSPNRRGIIEMFEYLYDKIVSIYHDKEPLINVIAWYGLETVNRTGGDEIKQWNCIIFLRSKHRPECYYAQGKKGLLISPAIAEMCGVFPIVREEDLDKITAKKITQIYKEVSLSQEQLKALTDQTS | not soluble
